# Data reported in paper PMC2793518.
# The chains behind the UniProt entries cited, without tags or fusion partners. Residues count along the entry.
# UniProt P15529, residues 35-392: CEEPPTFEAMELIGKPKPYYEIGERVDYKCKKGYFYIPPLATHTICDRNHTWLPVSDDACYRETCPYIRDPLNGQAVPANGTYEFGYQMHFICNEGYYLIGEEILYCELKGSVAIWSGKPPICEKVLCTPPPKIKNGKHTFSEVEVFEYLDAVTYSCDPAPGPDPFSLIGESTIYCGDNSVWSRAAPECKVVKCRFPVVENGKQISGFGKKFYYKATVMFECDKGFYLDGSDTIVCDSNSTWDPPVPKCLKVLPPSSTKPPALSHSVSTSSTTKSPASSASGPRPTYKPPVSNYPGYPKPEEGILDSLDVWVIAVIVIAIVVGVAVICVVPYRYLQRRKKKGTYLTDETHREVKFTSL
# UniProt P35774: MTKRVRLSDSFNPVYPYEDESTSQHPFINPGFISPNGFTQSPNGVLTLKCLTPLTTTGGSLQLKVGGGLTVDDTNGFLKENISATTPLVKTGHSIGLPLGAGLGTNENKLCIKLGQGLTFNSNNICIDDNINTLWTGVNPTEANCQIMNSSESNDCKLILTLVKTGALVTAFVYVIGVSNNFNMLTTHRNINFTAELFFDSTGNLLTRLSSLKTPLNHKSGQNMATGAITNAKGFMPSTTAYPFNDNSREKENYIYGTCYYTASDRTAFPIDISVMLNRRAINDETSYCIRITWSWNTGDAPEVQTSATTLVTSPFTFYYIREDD
# No constants are given. Whether binding was seen depends on the method and setting. Some entries that bind do so weakly or less than the wild type.
# Molecular target: CD46 on A549 cells (human (endogenous in A549)) (UniProt P15529)
# Experiment: flow cytometry on cells; A549 cultures infected with CRAD (low MOI, days 3 to 7; or MOI 5 or 50, 12 to 24 hr) or WT adenoviruses (until CPE or day 10); cell surface fiber detected with 4D2 mAb, CAR with RmcB mAb, CD46 with E4.3, J4.48 or MEM-258 mAb; staining on ice
substance,measurement,value
Ad11 fiber (from UniProt P35774 1-325),binding,binds
